# Results published in patent US12213985B2, “Oral cannabinoid formulations” (Jazz Pharmaceuticals Research UK Limited, priority 2016, dated 2025).
# Assay: Taste of alternative sweetener formulations
# Details: sweetener batches of Table 2
row,SMILES,taste of formulation made with the sweetener
1,O=C1NS(=O)(=O)c2ccccc21 [Saccharin],"unpleasant taste, and also had a lingering bitter after taste"
2,O.O.O=C1NS(=O)(=O)c2ccccc21 [Saccharin Dihydrate],"unpleasant taste, and also had a lingering bitter after taste"
3,"COC(=O)[C@H](Cc1ccccc1)NC(=O)[C@H](CC(=O)O)NCCC(C)(C)C [Neotame, N—[N-(3,3-dimethylbutyl)-L-α-aspartyl]-L-phenylalanine 1-methyl ester]","good taste profile, with no bitter after taste"
4,"COC(=O)[C@H](Cc1ccccc1)NC(=O)[C@H](CC(=O)O)NCCCc1ccc(OC)c(O)c1 [Advantame, N—[N-3-(3-hydroxy-4-methoxyphenyl)propyl-α-L-aspartyl]-L-phenylalanine 1-methyl ester]","good taste profile, with no bitter after taste"
